The source of these data is the supplement of paper PMC10338343.

In assay [1] the test system is MILI (PIWIL2) piRISC loaded with piRNA #1 (26 nt). Nature of the assay: pre-steady-state target cleavage rate (min^-1); higher = faster piRNA-guided slicing of the target. To be noted: guide: piRNA #1 5'p-UGAGGUAGUAGGUUGUAUAGUAUCCA; auxiliary factor: 500 nM mouse GTSF1. The method, boiled down: (§1)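 Cleave-'n-Seq: a transcribed, DNA-blocked target RNA library (0.1 nM) was mixed with 1 nM active affinity-purified piRISC carrying one synthetic guide, with or without 500 nM GTSF1 partner protein, in HEPES–potassium acetate buffer at 33 °C for 0–8 or 0–960 min. Uncleaved targets were sequenced and normalised to depth and to weakly complementary targets. Three trials were pooled, and k3 was capped at 0.0001 min^-1. The pre-steady-state cleavage rate came from a burst-and-steady-state fit.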

For assay [2], the system named is EfPiwi piRISC loaded with piRNA #1 (26 nt). Nature of the assay: pre-steady-state target cleavage rate (min^-1); guide: piRNA #1 5'p-UGAGGUAGUAGGUUGUAUAGUAUCCA; higher = faster piRNA-guided slicing of the target. Particulars: auxiliary factor: 500 nM Ephydatia muelleri Gtsf1. An outline of the steps: as §1
For assay [3], the system named is MIWI (PIWIL1) piRISC loaded with piRNA #1 (30 nt). In words: pre-steady-state target cleavage rate (min^-1); MIWI and MILI are mouse PIWI proteins and EfPiwi is from a freshwater sponge; tags in brackets are library labels; higher = faster piRNA-guided slicing of the target. Particulars: guide: piRNA #1 5'p-UGAGGUAGUAGGUUGUAUAGUAUCCAGAGG; auxiliary factor: 500 nM mouse GTSF1. An outline of the steps: as §1

± gives the standard deviation. This is a selection; strong and weak results do not stand in their true shares. Many entries were measured with a wide error.

GGAGACCUAUGAUUACAACCUCACUACCUCA: the results for the “pre-steady-state target cleavage rate” value in assay [1] and in assay [2] were 0.00291 ± 0.0027 and 0.000756 ± 0.0078, respectively.
GGAGACCUAUGAUAUCAACCUACAUCCUCA: the “pre-steady-state target cleavage rate” value in assay [1] is 0.00192 ± 0.0031; in assay [3], 0.00044 ± 0.0036; in assay [2] it was 0.000115 ± 0.017.
As for GGAGACCUAUGAUAUGUUGCUACUACGUCA, the entries for the “pre-steady-state target cleavage rate” value in assay [1], in assay [3] and in assay [2] were 0.000735 ± 0.0084, 0.00121 ± 0.0051 and 0.00102 ± 0.0042, respectively.
In the case of GGAGACCAUACUAUACAACCAUGUACCUCA, the “pre-steady-state target cleavage rate” value in assay [1] was determined as 0.000824 ± 0.0073; in assay [2], 0.000177 ± 0.022.
On the same counts, the results for GGAGACCUAUGAUAUCAACCUACUAUCUCA are 0.00057 ± 0.0076 and 0.000223 ± 0.013.
On the same counts, the results for GGAGACCAUACAAUACAACCUACUACGUCA are 0.0912 ± 0.014 and 0.00359 ± 0.004.
On the same counts, the results for GGAGACCUAUGAUAUGUUCCUACAUACCUCA are 0.00013 ± 0.031 and 0.000159 ± 0.017.
As for GGAGACCUAUCUAUACAACCUAGUAGCUCA, the “pre-steady-state target cleavage rate” value in assay [1] was 0.00169 ± 0.0046; in assay [2], 0.00367 ± 0.0043.
The like results for GGAGACCUAUGAUAUGUCCCUACUACCUCA were, in that order, 0.000109 ± 0.033 and 0.000909 ± 0.008.
Regarding GGAGACCUAUCUAUACAUCCAACUACCUCA, the entries for the “pre-steady-state target cleavage rate” value in assay [1] and in assay [2] were 0.00941 ± 0.0034 and 0.00281 ± 0.0041, respectively.
The like results for GGAGACCUUACUAAACAACCUAGUACCUCA were, in that order, 0.0259 ± 0.0068 and 0.00247 ± 0.0038.
In the case of GGAGACCUUACUAUAGAACCAACUACCUCA, the figures for the “pre-steady-state target cleavage rate” value in assay [1] and in assay [2] were 0.00175 ± 0.0038 and 0.00116 ± 0.0053, respectively.
On the same counts, the results for GGAGACCUAUCUAUAGAACCUACUUCCUCA are 0.00536 ± 0.0024 and 0.00116 ± 0.0058.
On the same counts, the results for GGAGACCUAUCUAAACAACCUAGUACCUCA are 0.0109 ± 0.0036 and 0.00117 ± 0.0037.
On the same counts, the results for GGAGACCAUACUAAACAUCCUACUACCUCA are 0.272 ± 0.022 and 0.00263 ± 0.0027.
GGAGACCUAUGAUAUGUACGUACUACGUCA: the results for the “pre-steady-state target cleavage rate” value in assay [1], in assay [3] and in assay [2] were 0.000945 ± 0.0076, 0.00139 ± 0.0051 and 0.000942 ± 0.0054, respectively.
Take GGAGUGGAUACUAUACAACCUAACUACCUCA: the “pre-steady-state target cleavage rate” value in assay [1] stood at 0.0255 ± 0.0041; in assay [2], 0.00456 ± 0.0023.
The like results for “GGAGACCUAUGUAUACAACCUACUACCUCG [g2:g19:cont:t1G]” were, in that order, 0.0649 ± 0.0098 and 0.00909 ± 0.0048.
For GGAGACCUAUGAUAACAGCCUACUACCUCA, the “pre-steady-state target cleavage rate” value in assay [1] was 0.000889 ± 0.0072; in assay [3] it was 0.000275 ± 0.0082; in assay [2], 0.00116 ± 0.0052.
On to GGAGACCAUUCUAUACAAGCUACUACCUCA, for which the “pre-steady-state target cleavage rate” value in assay [1] stood at 0.254 ± 0.018; in assay [2] it was 0.00183 ± 0.0027.
Consider GGAGACCUAACUAUACUACCAACUACCUCA, for which the “pre-steady-state target cleavage rate” value turned out to be 0.00367 ± 0.0055 in assay [1], 0.000834 ± 0.015 in assay [3] and 0.000933 ± 0.0076 in assay [2].
Consider GGAGACCAUACUAUACAAGCUACUACCACA, for which the “pre-steady-state target cleavage rate” value amounted to 0.32 ± 0.02 in assay [1] and 0.00382 ± 0.0046 in assay [2].
For GGAGAGGAUACUAUACAAGCUACUUCCUCA, the “pre-steady-state target cleavage rate” value in assay [1] was found to be 0.0737 ± 0.013; in assay [2] it was 0.00375 ± 0.0015.
On the same counts, the results for GGAGACCUAUCUUUAGAACCUACUACCUCA are 0.0437 ± 0.0095 and 0.000784 ± 0.0082.
GGAGACCUAUGAUAUGUUCCAACUACGUCA: the “pre-steady-state target cleavage rate” value in assay [1] amounted to 0.000553 ± 0.011; in assay [3] it was 0.000984 ± 0.0062; in assay [2] it was 0.00102 ± 0.0043.
For the sequence GGAGACCUAUGAUAUGUACCUACUACCGUCA, the “pre-steady-state target cleavage rate” value was 0.000265 ± 0.03 in assay [1] and 0.000148 ± 0.018 in assay [2].
For GGAGACCUAUGAUUACAACCUCCUACCUCA, the results for the “pre-steady-state target cleavage rate” value in assay [1] and in assay [2] were 0.00296 ± 0.003 and 0.00165 ± 0.0055, respectively.
Consider GGAGACCUAUGAUAUCAACCUAAUACCUCA, for which the “pre-steady-state target cleavage rate” value in assay [1] was determined as 0.00128 ± 0.0047; in assay [3], 0.000273 ± 0.0074; in assay [2], 0.000143 ± 0.016.
Consider “GGAGACCAUACUAUACAACCAUGAUGGAGA [g11:g23:cont:t1A]”, for which the figures for the “pre-steady-state target cleavage rate” value in assay [1] and in assay [2] were 0.000425 ± 0.014 and 0.00272 ± 0.0042, respectively.
The like results for “GGAGAGGAUACUAUACAUGGAUGAUGGAGA [g14:g25:cont:t1A]” were, in that order, 0.000308 ± 0.01 and 0.000222 ± 0.017.
For the sequence GGAGACCUAUGAUAUGUUCCAACUACCUCA, the entries for the “pre-steady-state target cleavage rate” value in assay [1], in assay [3] and in assay [2] were 0.000397 ± 0.011, 0.000307 ± 0.0092 and 0.000304 ± 0.0078, respectively.
The like results for GGAGACCUAUCUAUACAACCAACAACCUCA were, in that order, 0.0022 ± 0.0046, 0.000378 ± 0.011 and 0.000124 ± 0.036.
In the case of GGAGUGGAUACAAUACAUCCUACUACCUCA, the “pre-steady-state target cleavage rate” value in assay [1] is 0.256 ± 0.016; in assay [2] it was 0.00574 ± 0.0025.
The like results for GGAGACCUUACUAUAGAACCUACUACCACA were, in that order, 0.0558 ± 0.012 and 0.00169 ± 0.0056.
On to GGAGAGGAUACUAUACAACCUAGUACGUCA, for which the entries for the “pre-steady-state target cleavage rate” value in assay [1] and in assay [2] were 0.00151 ± 0.0048 and 0.0044 ± 0.0019, respectively.
The like results for GGAGACCUAUGUAUACAACGUACUACGUCA were, in that order, 0.00218 ± 0.0025 and 0.00138 ± 0.0036.
On the same counts, the results for GGAGACCUUACUAUACAACCUAGUACGUCA are 0.00165 ± 0.0047 and 0.00357 ± 0.0023.
The like results for GGAGACCUAUGAUAUCGAACCUACUACCUCA were, in that order, 0.000841 ± 0.0053 and 0.000507 ± 0.01.
As for GGAGACCUAUGUAUACAAACCUACUACCUCA, the “pre-steady-state target cleavage rate” value was found to be 0.00122 ± 0.0049 in assay [1], 0.000664 ± 0.0057 in assay [3] and 0.00181 ± 0.0046 in assay [2].
With GGAGACCUAACUAUACAACGCUACUACCUCA, the “pre-steady-state target cleavage rate” value in assay [1] came out at 0.000483 ± 0.023; in assay [2] it was 0.00208 ± 0.0055.
Turning to GGAGACGAUACUAUACAACCUUCUUCCUCA, the “pre-steady-state target cleavage rate” value was 0.00309 ± 0.0034 in assay [1] and 0.0037 ± 0.0019 in assay [2].
The like results for GGAGACGAUACUAUACAACCUAGCUACCUCA were, in that order, 0.0598 ± 0.0083 and 0.00543 ± 0.0023.
On the same counts, the results for GGAGACCAUACUAUACAACCUACUUCGUCA are 0.112 ± 0.029 and 0.00491 ± 0.0039.
On the same counts, the results for GGAGACCUAACUAUACAACACUACUACCUCA are 0.000183 ± 0.028 and 0.00185 ± 0.0043.
With GGAGACCUUACUAUACAACCUACUCCCUCA, the “pre-steady-state target cleavage rate” value in assay [1] came to 0.0992 ± 0.015; in assay [2], 0.00342 ± 0.0031.
On the same counts, the results for GGAGACGAUACUAUACAACCUACUAGCUGA are 0.0101 ± 0.0055 and 0.00481 ± 0.0027.
The like results for GGAGACCUUAGUAUACAAGCUACUACCUCA were, in that order, 0.174 ± 0.012 and 0.00181 ± 0.0039.
Regarding GGAGACGAUACUAUACAACCUACUACUCUCA, the “pre-steady-state target cleavage rate” value in assay [1] was 0.244 ± 0.019; in assay [2], 0.00563 ± 0.0022.
Take GGAGACGAUAGUAUACAACCUACUACGUCA: the “pre-steady-state target cleavage rate” value in assay [1] stood at 0.00324 ± 0.0041; in assay [2], 0.0019 ± 0.0015.
Take GGAGACCAUACUAUAGAACCUACUACGUCA: the “pre-steady-state target cleavage rate” value in assay [1] is 0.0697 ± 0.013; in assay [2] it was 0.00374 ± 0.0034.
On the same counts, the results for GGAGACCUUACUAUACAACCUACUAGGACA are 0.00167 ± 0.0055 and 0.00109 ± 0.0048.
On the same counts, the results for GGAGACCAUACUAUACAACCUACUACCUUA are 0.22 ± 0.024 and 0.0127 ± 0.0048.
For the sequence GGAGACCUUACUAUACAACCUUGUACCUCA, the “pre-steady-state target cleavage rate” value came to 0.000951 ± 0.0093 in assay [1] and 0.00267 ± 0.0031 in assay [2].
The like results for GGAGUGGAUACUAUACAAGCAACUACCUCA were, in that order, 0.00874 ± 0.0017 and 0.00256 ± 0.0013.
Regarding GGAGACCUAACAAUAGAACCUACUACCUCA, the figures for the “pre-steady-state target cleavage rate” value in assay [1] and in assay [2] were 0.0656 ± 0.012 and 0.00104 ± 0.0056, respectively.
On the same counts, the results for GGAGUGGAUACUAUACAACCUUCUAGCUCA are 0.00102 ± 0.0043 and 0.00376 ± 0.0018.
The like results for GGAGACGAAACUAUACAACCUACUACGUCA were, in that order, 0.0713 ± 0.022 and 0.00245 ± 0.0024.
The like results for GGAGACCUAUCUAUAGAACCUUCUACCUCA were, in that order, 0.00178 ± 0.0045 and 0.000109 ± 0.022.
GGAGUGGAUACUUUACAACCUACUUCCUCA: the “pre-steady-state target cleavage rate” value in assay [1] was 0.00204 ± 0.0024; in assay [2], 0.00136 ± 0.0034.
On the same counts, the results for GGAGACCUAACAAAACAACCUACUACCUCA are 0.00465 ± 0.0051 and 0.00903 ± 0.0046.
On the same counts, the results for GGAGACGAUACUAUACAACCUAUCUACCUCA are 0.17 ± 0.017 and 0.00473 ± 0.0019.
The like results for GGAGACCUUACUAUACAACCUAGAACCUCA were, in that order, 0.00842 ± 0.0033 and 0.00138 ± 0.0073.
As for GGAGUGGAUACUUUACAACCUACAACCUCA, the “pre-steady-state target cleavage rate” value in assay [1] stood at 0.0647 ± 0.0091; in assay [2] it was 0.00185 ± 0.002.
